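HEK293T cells carrying an RXR-alpha UAS beta-lactamase reporter, run in antagonist mode, read as a beta-lactamase signal ratio; the time is not given here. Potency comes from a fitted concentration series; the assay's dose columns span 0.00043 to 5.4e+04 µM. The number is the concentration giving half-maximal effect, and a lower value means a more potent compound. Active means a well-fitted inhibition curve with enough effect while the control signal stays flat; inconclusive means weak, poorly fitted, top-dose-only, reversed or side-signal effects.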

Values are in nM. Every entry below has the call inconclusive. Only part of the assay is shown, chiefly results filed as inconclusive. Potencies fitted to partial, single-point or poorly fitting curves are rough. The first word of each remark tells which way the curve ran; it can be opposite to the aim of the assay.

| structure | fitted potency (nM) | remark |
|---|---|---|
| `CC(C=CC1=C(C)CCCC1(C)C)=CC=CC(C)=CC(=O)Nc1ccc(O)cc1` | 44668 | cytotoxic, side channel, partial curve, poor fit |
| `CC1(C)[C@H](C(=O)O[C@H](C#N)c2cccc(Oc3ccccc3)c2)[C@@H]1C=C(Br)Br` | 39810 | inhibitor, partial curve, poor fit |
| `CC1=C(/C=C/C(C)=C/C=C/C(C)=C/C(=O)Nc2ccc(O)cc2)C(C)(C)CCC1` | 35481 | cytotoxic, side channel, partial curve, poor fit |
| `O=c1cc(-c2ccccc2)oc2cc(O)cc(O)c12` | 35481 | side channel, rising, partial curve, poor fit |
| `COc1cc(-c2ccc(N)c(OC)c2)ccc1N` | 44668 | cytotoxic, side channel, partial curve, poor fit |
| `Cc1cc(O)c(C(C)(C)C)cc1Sc1cc(C(C)(C)C)c(O)cc1C` | 50118 | cytotoxic, side channel, single point |
| `S=C([S-])NCCNC(=S)[S-].[Mn+2]` | 15848 | inhibitor, full curve, poor fit |
| `O=C(O)c1cc[c]([Hg][Cl])cc1` | 50118 | inhibitor, single point |
| `c1cc(OCC2CO2)cc(OCC2CO2)c1` (stereo not given) | 31622 | side channel, rising, partial curve, poor fit |

Data taken from PubChem BioAssay AID588546, deposited by NCATS (2011).